Results: the supplement of paper PMC10849652
The list shows a part of the results.

Chains of the proteins cited; added tags and fusions are not shown. Lines headed by an entry give the natural chain unless they say otherwise; changes in a name come on top.
UniProt Q6ZNJ1: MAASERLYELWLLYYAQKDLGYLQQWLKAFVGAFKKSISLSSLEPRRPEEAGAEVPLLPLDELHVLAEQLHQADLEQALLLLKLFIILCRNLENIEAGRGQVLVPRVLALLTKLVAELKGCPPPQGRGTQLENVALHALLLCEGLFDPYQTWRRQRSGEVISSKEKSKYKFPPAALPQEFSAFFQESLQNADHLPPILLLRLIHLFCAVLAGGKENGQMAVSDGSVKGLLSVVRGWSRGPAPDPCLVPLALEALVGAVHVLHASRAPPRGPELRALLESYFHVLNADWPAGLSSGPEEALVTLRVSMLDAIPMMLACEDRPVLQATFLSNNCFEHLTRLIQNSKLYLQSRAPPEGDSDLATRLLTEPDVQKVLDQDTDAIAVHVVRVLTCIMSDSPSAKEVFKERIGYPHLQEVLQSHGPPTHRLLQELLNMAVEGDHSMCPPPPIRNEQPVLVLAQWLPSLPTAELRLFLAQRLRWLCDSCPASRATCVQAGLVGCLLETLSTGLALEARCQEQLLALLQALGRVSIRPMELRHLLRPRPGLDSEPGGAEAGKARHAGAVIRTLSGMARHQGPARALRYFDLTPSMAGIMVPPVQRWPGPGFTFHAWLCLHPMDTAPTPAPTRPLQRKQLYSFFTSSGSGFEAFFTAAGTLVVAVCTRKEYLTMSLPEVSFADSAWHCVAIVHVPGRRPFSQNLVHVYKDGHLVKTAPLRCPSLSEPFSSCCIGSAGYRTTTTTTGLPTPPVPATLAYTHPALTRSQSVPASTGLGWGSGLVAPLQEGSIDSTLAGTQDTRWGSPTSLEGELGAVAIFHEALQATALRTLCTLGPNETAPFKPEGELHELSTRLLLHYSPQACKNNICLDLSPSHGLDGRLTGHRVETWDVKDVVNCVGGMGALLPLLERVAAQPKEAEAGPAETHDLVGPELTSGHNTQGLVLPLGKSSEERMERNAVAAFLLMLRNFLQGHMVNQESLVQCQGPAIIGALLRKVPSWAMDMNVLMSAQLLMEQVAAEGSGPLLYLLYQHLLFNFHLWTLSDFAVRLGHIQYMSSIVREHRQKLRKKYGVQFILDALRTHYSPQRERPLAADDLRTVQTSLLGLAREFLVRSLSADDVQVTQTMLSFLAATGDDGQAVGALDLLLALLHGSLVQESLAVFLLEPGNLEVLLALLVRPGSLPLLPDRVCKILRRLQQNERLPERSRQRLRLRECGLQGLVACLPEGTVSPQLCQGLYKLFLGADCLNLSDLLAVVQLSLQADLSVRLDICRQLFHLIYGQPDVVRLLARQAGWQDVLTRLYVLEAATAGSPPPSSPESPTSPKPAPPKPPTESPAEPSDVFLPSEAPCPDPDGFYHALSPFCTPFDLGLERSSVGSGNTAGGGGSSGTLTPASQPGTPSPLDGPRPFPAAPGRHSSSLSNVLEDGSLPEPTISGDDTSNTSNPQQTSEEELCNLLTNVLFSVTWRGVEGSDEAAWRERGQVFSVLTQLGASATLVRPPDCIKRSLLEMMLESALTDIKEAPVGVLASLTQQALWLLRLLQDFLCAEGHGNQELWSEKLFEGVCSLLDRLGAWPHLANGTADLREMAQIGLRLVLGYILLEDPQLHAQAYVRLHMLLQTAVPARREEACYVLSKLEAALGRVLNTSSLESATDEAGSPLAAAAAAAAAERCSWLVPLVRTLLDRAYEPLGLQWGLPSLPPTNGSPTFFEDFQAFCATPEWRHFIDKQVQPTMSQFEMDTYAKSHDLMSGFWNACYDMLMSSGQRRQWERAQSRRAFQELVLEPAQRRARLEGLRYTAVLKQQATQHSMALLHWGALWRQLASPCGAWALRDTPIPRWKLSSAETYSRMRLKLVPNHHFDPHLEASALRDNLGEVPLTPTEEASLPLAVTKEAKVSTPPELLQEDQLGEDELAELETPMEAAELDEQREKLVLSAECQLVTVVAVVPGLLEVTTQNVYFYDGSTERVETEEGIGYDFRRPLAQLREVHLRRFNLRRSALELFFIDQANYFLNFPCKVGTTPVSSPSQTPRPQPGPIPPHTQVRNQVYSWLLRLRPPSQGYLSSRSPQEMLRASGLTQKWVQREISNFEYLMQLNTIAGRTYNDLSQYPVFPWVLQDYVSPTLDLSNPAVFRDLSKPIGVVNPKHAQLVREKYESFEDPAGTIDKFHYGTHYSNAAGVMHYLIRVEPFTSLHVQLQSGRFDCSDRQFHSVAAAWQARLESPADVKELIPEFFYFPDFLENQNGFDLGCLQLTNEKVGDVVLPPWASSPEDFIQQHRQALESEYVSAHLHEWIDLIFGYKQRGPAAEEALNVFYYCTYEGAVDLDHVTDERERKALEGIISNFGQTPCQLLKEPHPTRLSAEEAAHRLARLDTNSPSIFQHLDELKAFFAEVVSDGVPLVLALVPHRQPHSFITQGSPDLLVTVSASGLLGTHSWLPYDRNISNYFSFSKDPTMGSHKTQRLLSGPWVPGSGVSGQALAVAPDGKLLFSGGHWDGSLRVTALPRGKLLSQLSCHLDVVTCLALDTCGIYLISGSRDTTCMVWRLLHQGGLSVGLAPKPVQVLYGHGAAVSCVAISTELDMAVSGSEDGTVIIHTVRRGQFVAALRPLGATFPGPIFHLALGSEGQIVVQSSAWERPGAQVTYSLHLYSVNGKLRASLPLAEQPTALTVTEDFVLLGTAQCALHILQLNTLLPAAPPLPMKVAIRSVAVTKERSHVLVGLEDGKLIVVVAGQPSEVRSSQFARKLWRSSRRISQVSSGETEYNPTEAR
UniProt Q9Y2A7: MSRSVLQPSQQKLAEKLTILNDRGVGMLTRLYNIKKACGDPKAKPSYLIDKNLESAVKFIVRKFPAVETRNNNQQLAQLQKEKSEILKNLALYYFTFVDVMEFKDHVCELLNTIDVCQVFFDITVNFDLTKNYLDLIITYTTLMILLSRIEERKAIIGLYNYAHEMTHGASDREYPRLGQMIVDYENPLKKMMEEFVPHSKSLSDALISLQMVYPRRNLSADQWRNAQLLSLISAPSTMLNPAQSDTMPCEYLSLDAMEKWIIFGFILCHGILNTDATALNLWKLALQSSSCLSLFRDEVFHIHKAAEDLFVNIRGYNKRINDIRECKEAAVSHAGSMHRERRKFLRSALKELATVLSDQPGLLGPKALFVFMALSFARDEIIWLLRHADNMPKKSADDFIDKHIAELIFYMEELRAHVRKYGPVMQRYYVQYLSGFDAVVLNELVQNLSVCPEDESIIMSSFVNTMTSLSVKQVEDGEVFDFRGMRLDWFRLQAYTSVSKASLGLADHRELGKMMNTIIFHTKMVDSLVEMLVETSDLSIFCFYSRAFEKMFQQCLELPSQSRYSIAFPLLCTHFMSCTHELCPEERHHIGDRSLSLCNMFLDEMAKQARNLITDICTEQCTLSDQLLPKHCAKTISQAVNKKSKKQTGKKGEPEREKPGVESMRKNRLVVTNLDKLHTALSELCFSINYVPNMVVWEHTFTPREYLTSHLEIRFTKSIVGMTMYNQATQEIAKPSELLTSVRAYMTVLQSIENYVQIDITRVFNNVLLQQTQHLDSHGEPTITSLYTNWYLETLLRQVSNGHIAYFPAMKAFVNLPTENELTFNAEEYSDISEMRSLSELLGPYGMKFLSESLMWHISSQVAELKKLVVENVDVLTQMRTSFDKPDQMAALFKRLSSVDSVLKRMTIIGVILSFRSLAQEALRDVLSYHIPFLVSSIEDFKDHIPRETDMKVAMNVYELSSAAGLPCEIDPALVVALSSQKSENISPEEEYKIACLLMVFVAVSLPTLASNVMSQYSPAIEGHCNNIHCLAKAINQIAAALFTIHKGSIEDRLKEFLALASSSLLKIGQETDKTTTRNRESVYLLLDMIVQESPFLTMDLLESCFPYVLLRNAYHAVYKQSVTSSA
UniProt Q69YL0: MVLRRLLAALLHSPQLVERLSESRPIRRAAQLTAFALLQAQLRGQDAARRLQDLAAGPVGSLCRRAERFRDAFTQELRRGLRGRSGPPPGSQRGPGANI
UniProt Q15788: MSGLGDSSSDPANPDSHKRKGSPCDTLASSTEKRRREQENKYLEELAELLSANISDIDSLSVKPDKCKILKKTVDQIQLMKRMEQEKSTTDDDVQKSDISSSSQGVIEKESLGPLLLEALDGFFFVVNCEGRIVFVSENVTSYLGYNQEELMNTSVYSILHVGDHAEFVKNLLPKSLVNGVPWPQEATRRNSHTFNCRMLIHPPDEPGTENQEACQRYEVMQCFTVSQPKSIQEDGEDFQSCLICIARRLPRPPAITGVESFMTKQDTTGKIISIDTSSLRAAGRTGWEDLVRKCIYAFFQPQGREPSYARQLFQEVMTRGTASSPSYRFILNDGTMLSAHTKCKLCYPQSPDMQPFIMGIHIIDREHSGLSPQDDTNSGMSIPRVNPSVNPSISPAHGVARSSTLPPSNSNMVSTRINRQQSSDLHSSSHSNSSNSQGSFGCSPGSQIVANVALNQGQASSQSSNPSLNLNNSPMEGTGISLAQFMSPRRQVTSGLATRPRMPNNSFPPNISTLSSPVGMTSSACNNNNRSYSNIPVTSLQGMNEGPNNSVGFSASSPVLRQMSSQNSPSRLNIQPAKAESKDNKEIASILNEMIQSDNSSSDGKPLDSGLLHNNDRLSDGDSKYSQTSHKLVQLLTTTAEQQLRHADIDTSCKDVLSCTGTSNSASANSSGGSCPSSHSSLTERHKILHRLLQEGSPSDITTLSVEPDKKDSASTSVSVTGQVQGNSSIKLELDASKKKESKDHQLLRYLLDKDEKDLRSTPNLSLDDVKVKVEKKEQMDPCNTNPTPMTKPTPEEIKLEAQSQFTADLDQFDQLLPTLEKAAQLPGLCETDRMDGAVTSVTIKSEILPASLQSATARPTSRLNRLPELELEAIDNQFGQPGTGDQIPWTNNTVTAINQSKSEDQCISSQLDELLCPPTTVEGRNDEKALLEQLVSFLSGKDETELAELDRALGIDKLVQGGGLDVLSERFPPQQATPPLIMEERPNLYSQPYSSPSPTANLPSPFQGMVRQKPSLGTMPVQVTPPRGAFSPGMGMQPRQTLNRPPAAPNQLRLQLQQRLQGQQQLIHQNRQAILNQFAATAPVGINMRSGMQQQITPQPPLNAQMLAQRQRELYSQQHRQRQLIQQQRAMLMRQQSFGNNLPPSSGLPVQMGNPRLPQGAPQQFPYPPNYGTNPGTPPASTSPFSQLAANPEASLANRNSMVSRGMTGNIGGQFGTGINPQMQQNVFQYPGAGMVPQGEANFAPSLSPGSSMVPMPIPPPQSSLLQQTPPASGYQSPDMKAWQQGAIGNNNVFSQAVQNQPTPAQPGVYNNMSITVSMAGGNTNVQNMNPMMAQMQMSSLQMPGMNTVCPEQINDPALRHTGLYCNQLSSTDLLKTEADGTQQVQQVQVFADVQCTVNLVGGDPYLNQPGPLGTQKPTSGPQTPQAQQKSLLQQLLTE
UniProt P10242: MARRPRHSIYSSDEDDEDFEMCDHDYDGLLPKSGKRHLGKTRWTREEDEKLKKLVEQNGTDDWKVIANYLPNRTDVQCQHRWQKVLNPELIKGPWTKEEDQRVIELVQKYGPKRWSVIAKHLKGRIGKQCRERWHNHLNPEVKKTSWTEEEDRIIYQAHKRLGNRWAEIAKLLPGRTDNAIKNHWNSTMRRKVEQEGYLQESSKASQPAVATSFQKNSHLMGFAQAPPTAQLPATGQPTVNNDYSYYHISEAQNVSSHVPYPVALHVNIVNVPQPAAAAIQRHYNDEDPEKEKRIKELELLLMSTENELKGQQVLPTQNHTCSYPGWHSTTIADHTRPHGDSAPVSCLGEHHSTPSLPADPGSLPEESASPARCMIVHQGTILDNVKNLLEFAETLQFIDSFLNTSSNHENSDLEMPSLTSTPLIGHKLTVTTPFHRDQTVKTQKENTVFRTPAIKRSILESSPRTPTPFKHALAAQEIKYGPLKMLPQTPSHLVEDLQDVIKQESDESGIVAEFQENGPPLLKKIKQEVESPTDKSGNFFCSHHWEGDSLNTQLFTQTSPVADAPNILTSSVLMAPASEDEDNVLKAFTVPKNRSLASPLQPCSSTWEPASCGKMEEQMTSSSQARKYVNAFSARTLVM
UniProt Q96I59: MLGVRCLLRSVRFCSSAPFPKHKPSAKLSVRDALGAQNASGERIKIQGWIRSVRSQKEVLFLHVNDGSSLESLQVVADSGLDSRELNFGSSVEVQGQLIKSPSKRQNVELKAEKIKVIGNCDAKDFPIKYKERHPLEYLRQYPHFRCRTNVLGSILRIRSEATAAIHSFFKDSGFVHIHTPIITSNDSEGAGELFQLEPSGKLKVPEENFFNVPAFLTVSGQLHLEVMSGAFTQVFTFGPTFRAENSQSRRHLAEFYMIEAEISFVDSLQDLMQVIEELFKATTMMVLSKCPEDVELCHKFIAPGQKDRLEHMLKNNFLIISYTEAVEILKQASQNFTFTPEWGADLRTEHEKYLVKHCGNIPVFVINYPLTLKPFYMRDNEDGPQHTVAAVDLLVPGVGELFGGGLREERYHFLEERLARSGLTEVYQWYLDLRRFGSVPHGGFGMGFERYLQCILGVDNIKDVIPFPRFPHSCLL

How the values were obtained:
Assay in all cases: log2 fold change, soluble protein after heating vs DMSO (PISA); higher = thermal stabilisation; K562 lysate, 10 uM; active = over 0.2 and 3.5 SD of the protein, either way, in both replicates (recomputed)
lapatinib = compound: CS(=O)(=O)CCNCc1ccc(-c2ccc3ncnc(Nc4ccc(OCc5cccc(F)c5)c(Cl)c4)c3c2)o1 [lapatinib]
Method in brief: (§1)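 Quantification was by TMTpro 16plex LC-MS/MS with equalised channel sums, applied to the supernatant after 21,000xg for 90 min. Samples were crude K562 extract at 1 mg/mL protein in PBS pH 7.4 with 1 mM MgCl2, treated with 10 μM compound for 30 min, heated for 3 min across 48°C-58°C, pooled and brought to 0.5% NP-40 at 4°C. Values are log-two fold changes in thermal stability relative to solvent controls, from duplicates.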

pictilisib = compound: CS(=O)(=O)N1CCN(Cc2cc3nc(-c4cccc5[nH]ncc45)nc(N4CCOCC4)c3s2)CC1 [pictilisib]
Method in brief: as §1

crizotinib = compound: C[C@@H](Oc1cc(-c2cnn(C3CCNCC3)c2)cnc1N)c1c(Cl)ccc(F)c1Cl [crizotinib]
Method in brief: as §1

[1] = compound: C[C@H](C1=CC=C(C=C1)C(=O)NC2=C3C=CNC3=NC=C2)N
Method in brief: as §1

duvelisib = compound: C[C@H](Nc1ncnc2nc[nH]c12)c1cc2cccc(Cl)c2c(=O)n1-c1ccccc1 [duvelisib]
Method in brief: as §1

gandotinib = compound: Cc1cc(Nc2cc(CN3CCOCC3)c3nc(C)c(Cc4ccc(Cl)cc4F)n3n2)n[nH]1 [gandotinib]
Method in brief: as §1

tozasertib = compound: Cc1cc(Nc2cc(N3CCN(C)CC3)nc(Sc3ccc(NC(=O)C4CC4)cc3)n2)n[nH]1 [tozasertib]
Method in brief: as §1

doramapimod = compound: Cc1ccc(-n2nc(C(C)(C)C)cc2NC(=O)Nc2ccc(OCCN3CCOCC3)c3ccccc23)cc1 [doramapimod]
Method in brief: as §1

bafetinib = compound: Cc1ccc(NC(=O)c2ccc(CN3CC[C@H](N(C)C)C3)c(C(F)(F)F)c2)cc1Nc1nccc(-c2cncnc2)n1 [bafetinib]
Method in brief: as §1

[2] = compound: Cc1cccc(CC(=O)N2CCc3c2ccc(-c2cn(C)c4ncnc(N)c24)c3F)n1
Method in brief: as §1

nilotinib = compound: Cc1cn(-c2cc(NC(=O)c3ccc(C)c(Nc4nccc(-c5cccnc5)n4)c3)cc(C(F)(F)F)c2)cn1 [nilotinib]
Method in brief: as §1

[3] = compound: Cc1nc(Nc2n[nH]c3c2CN(C(=O)N[C@H](CN(C)C)c2ccccc2)C3(C)C)c2sccc2n1
Method in brief: as §1

dasatinib = compound: Cc1nc(Nc2ncc(C(=O)Nc3c(C)cccc3Cl)s2)cc(N2CCN(CCO)CC2)n1 [dasatinib]
Method in brief: as §1

[4] = compound: Cc1ncc(-c2ccnc(Nc3ccc(S(C)(=O)=O)cc3)n2)n1C(C)C
Method in brief: as §1

[5] = compound: Cn1cc(-c2ccc3c(c2)CCN3C(=O)Cc2cccc(C(F)(F)F)c2)c2c(N)ncnc21
Method in brief: as §1

quisinostat = compound: Cn1cc(CNCC2CCN(c3ncc(C(=O)NO)cn3)CC2)c2ccccc21 [quisinostat]
Method in brief: as §1

tipifarnib = compound: Cn1cncc1[C@@](N)(c1ccc(Cl)cc1)c1ccc2c(c1)c(-c1cccc(Cl)c1)cc(=O)n2C [tipifarnib]
Method in brief: as §1

[6] = compound: NC(=O)Nc1cc(-c2cccc(F)c2)sc1C(=O)N[C@H]1CCCNC1
Method in brief: as §1

[7] = compound: NC(=O)c1cnc(N[C@@H]2CCCC[C@@H]2N)nc1Nc1cccc(-n2nccn2)c1
Method in brief: as §1

[8] = compound: NC1(c2ccc(-c3nc4ccn5c(=O)[nH]nc5c4cc3-c3ccccc3)cc2)CCC1
Method in brief: as §1

Measured: log2 fold change

MYCBP (UniProt Q99417)
inactive: lapatinib 0.01 | pictilisib -0.052 | crizotinib 0.003 | duvelisib 0.02 | gandotinib 0.105 | tozasertib 0.028 | doramapimod 0.008 | bafetinib -0.018 | [2] 0.182 | nilotinib -0.034 | [3] 0.041 | dasatinib 0.019 | [4] 0.055 | [5] -0.011 | quisinostat -0.058 | tipifarnib -0.011 | [6] -0.038 | [7] -0.02 | [8] 0.029
active: [1] -0.498

NBEAL2 (UniProt Q6ZNJ1)
inactive: lapatinib -0.065 | pictilisib -0.016 | crizotinib -0.069 | [1] -0.006 | duvelisib 0.04 | gandotinib -0.157 | tozasertib 0.02 | doramapimod 0.008 | bafetinib -0.056 | [2] 0.072 | nilotinib 0.031 | [3] -0.008 | dasatinib -0.069 | [4] 0.036 | [5] 0.029 | quisinostat -0.077 | tipifarnib -0.017 | [6] 0.033 | [7] 0.014 | [8] 0.06

NCLN (UniProt Q969V3)
inactive: lapatinib -0.023 | pictilisib -0.003 | crizotinib -0.029 | [1] -0.045 | duvelisib -0.014 | gandotinib -0.054 | tozasertib 0.013 | doramapimod -0.004 | bafetinib -0.057 | [2] 0.049 | nilotinib -0.026 | [3] -0.013 | dasatinib -0.004 | [4] 0.034 | [5] 0.035 | quisinostat 0.007 | tipifarnib -0.013 | [6] 0.025 | [7] 0.009 | [8] 0.002

NAXE (UniProt Q8NCW5)
inactive: lapatinib 0.008 | pictilisib -0.008 | crizotinib 0.046 | [1] 0.024 | duvelisib -0.016 | gandotinib -0.031 | tozasertib 0 | doramapimod -0.011 | bafetinib 0.002 | [2] -0.003 | nilotinib 0.053 | [3] -0.007 | dasatinib 0.013 | [4] -0.005 | [5] -0.011 | quisinostat 0.058 | tipifarnib 0.03 | [6] -0.012 | [7] -0.02 | [8] 0.022

NCKAP1 isoform 2 (UniProt Q9Y2A7)
inactive: lapatinib -0.025 | pictilisib -0.035 | crizotinib -0.009 | [1] -0.002 | duvelisib -0.025 | gandotinib -0.032 | tozasertib 0 | doramapimod -0.007 | bafetinib -0.019 | [2] -0.006 | nilotinib -0.007 | [3] 0.002 | dasatinib -0.004 | [4] 0.022 | [5] 0.006 | quisinostat -0.043 | tipifarnib 0.013 | [6] -0.007 | [7] -0.001 | [8] 0.021

NCBP2AS2 (UniProt Q69YL0)
inactive: lapatinib -0.033 | pictilisib -0.08 | crizotinib -0.07 | [1] 0.062 | duvelisib -0.034 | gandotinib -0.142 | tozasertib 0.086 | doramapimod 0.031 | bafetinib -0.271 | [2] -0.051 | nilotinib -0.078 | [3] 0.03 | dasatinib -0.09 | [4] 0.03 | [5] 0.017 | quisinostat 0.006 | tipifarnib -0.107 | [6] 0.007 | [7] -0.049 | [8] -0.018

NAA10 (UniProt P41227)
inactive: lapatinib -0.009 | pictilisib 0.003 | crizotinib 0.064 | [1] 0.041 | duvelisib -0.021 | gandotinib -0.056 | tozasertib 0.01 | doramapimod 0.016 | bafetinib -0.008 | [2] -0.067 | nilotinib 0.015 | [3] -0.01 | dasatinib -0.026 | [4] -0.001 | [5] -0.01 | quisinostat 0.067 | tipifarnib 0.034 | [6] -0.005 | [7] 0.002 | [8] 0.019

NCOA1 (UniProt Q15788)
inactive: lapatinib 0.001 | pictilisib -0.024 | crizotinib 0.012 | [1] -0.043 | duvelisib 0.029 | gandotinib 0.041 | tozasertib 0.002 | doramapimod -0.024 | bafetinib -0.004 | [2] 0.018 | nilotinib -0.064 | [3] 0.031 | dasatinib -0.024 | [4] 0.023 | [5] 0.05 | quisinostat -0.041 | tipifarnib -0.033 | [6] 0.019 | [7] 0.035 | [8] -0.039

MVK (UniProt Q03426)
inactive: lapatinib 0.007 | pictilisib 0.003 | crizotinib -0.021 | [1] -0.051 | duvelisib 0.007 | gandotinib -0.01 | tozasertib 0 | doramapimod 0.071 | bafetinib -0.006 | [2] 0.03 | nilotinib -0.026 | [3] 0.021 | dasatinib -0.039 | [4] -0.014 | [5] -0.02 | quisinostat -0.005 | tipifarnib -0.035 | [6] 0.017 | [7] 0.021 | [8] 0.024

MYH10 isoform 3 (UniProt P35580)
inactive: lapatinib -0.064 | pictilisib -0.003 | crizotinib 0.02 | [1] 0.018 | duvelisib 0.019 | gandotinib -0.029 | tozasertib 0.012 | doramapimod -0.007 | bafetinib 0.014 | [2] -0.011 | nilotinib -0.004 | [3] -0.005 | dasatinib 0.003 | [4] 0.007 | [5] -0.004 | quisinostat 0.01 | tipifarnib -0.011 | [6] -0.014 | [7] 0.013 | [8] -0.013

NAA35 (UniProt Q5VZE5)
inactive: lapatinib 0.009 | pictilisib 0.032 | crizotinib -0.031 | [1] 0.082 | duvelisib -0.007 | gandotinib -0.042 | tozasertib -0.003 | doramapimod 0.031 | bafetinib -0.057 | [2] -0.022 | nilotinib -0.019 | [3] 0.014 | dasatinib -0.005 | [4] 0.009 | [5] 0.01 | quisinostat -0.075 | tipifarnib 0.034 | [6] 0.001 | [7] -0.035 | [8] 0.016

NCL (UniProt P19338)
inactive: lapatinib -0.022 | pictilisib 0.011 | crizotinib 0.016 | [1] 0.026 | duvelisib 0.035 | gandotinib -0.024 | tozasertib 0.006 | doramapimod -0.018 | bafetinib 0.032 | [2] -0.01 | nilotinib -0.007 | [3] -0.026 | dasatinib 0.003 | [4] 0.011 | [5] 0.013 | quisinostat 0.014 | tipifarnib 0.015 | [6] -0.014 | [7] -0.024 | [8] 0.003

MYB isoform 4 (UniProt P10242)
inactive: lapatinib -0.012 | pictilisib 0.197 | crizotinib -0.009 | [1] 0.104 | duvelisib 0.143 | gandotinib -0.168 | tozasertib 0.113 | doramapimod -0.039 | bafetinib 0.105 | [2] -0.098 | nilotinib 0.1 | [3] 0.056 | dasatinib 0 | [4] -0.042 | [5] 0.02 | quisinostat -0.045 | tipifarnib -0.227 | [6] 0.136 | [7] 0.014 | [8] -0.017

Two neighbouring records from above, quoted:
MYH10 isoform 3 (UniProt P35580)
inactive: lapatinib -0.064 | pictilisib -0.003 | crizotinib 0.02 | [1] 0.018 | duvelisib 0.019 | gandotinib -0.029 | tozasertib 0.012 | doramapimod -0.007 | bafetinib 0.014 | [2] -0.011 | nilotinib -0.004 | [3] -0.005 | dasatinib 0.003 | [4] 0.007 | [5] -0.004 | quisinostat 0.01 | tipifarnib -0.011 | [6] -0.014 | [7] 0.013 | [8] -0.013

NAA35 (UniProt Q5VZE5)
inactive: lapatinib 0.009 | pictilisib 0.032 | crizotinib -0.031 | [1] 0.082 | duvelisib -0.007 | gandotinib -0.042 | tozasertib -0.003 | doramapimod 0.031 | bafetinib -0.057 | [2] -0.022 | nilotinib -0.019 | [3] 0.014 | dasatinib -0.005 | [4] 0.009 | [5] 0.01 | quisinostat -0.075 | tipifarnib 0.034 | [6] 0.001 | [7] -0.035 | [8] 0.016

Remaining list, next part:

NARS1 (UniProt O43776)
inactive: lapatinib 0.011 | pictilisib 0.017 | crizotinib -0.024 | [1] 0.016 | duvelisib 0.025 | gandotinib -0.025 | tozasertib 0.049 | doramapimod 0.029 | bafetinib -0.017 | [2] 0.004 | nilotinib 0.009 | [3] -0.016 | dasatinib -0.018 | [4] -0.021 | [5] 0.025 | quisinostat 0 | tipifarnib -0.01 | [6] 0 | [7] 0.021 | [8] 0.013

NARS2 (UniProt Q96I59)
inactive: lapatinib 0.039 | pictilisib -0.132 | crizotinib -0.034 | [1] 0.039 | duvelisib -0.002 | gandotinib -0.058 | tozasertib 0.013 | doramapimod -0.01 | bafetinib -0.053 | [2] 0.024 | nilotinib 0.019 | [3] -0.027 | dasatinib -0.046 | [4] -0.014 | [5] 0.026 | quisinostat -0.023 | tipifarnib 0.007 | [6] 0.051 | [7] 0.037 | [8] -0.037

MYO6 isoform 6 (UniProt Q9UM54)
inactive: lapatinib -0.001 | pictilisib 0.006 | crizotinib -0.042 | [1] -0.02 | duvelisib 0.031 | gandotinib -0.02 | tozasertib 0.025 | doramapimod 0.01 | bafetinib -0.056 | [2] -0.004 | nilotinib -0.065 | [3] 0 | dasatinib -0.196 | [4] 0.024 | [5] 0.098 | quisinostat -0.031 | tipifarnib -0.001 | [6] 0.034 | [7] -0.002 | [8] -0.051
